# Screening data, single-dose tests

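Whole-cell growth test on Mycobacterium tuberculosis, read after 4 days in a medium based on cholesterol and the lipid DPPC; the read-out is not stated. Compounds at 500 µM. Direction is inferred from retests: higher values go with more growth inhibition. Size under these conditions: about 18,000 compounds, about 900 of them at 50% or above in at least one test.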

Each number is a percent effect as filed. How 0% and 100% were set is not recorded. Most values in the screen are low, and negative values occur. Compounds were drawn at random from those tested, without regard to their results.

| # | structure | percent effect |
|---|---|---|
| 1 | `CCS(=O)(=O)NC1CCN(C(=O)c2cccc(F)c2)C1` (centres unmarked) | 5.659% |
| 2 | `CCCNC(=O)C(C)NC(=O)Cc1cccc(OC)c1` (centres unmarked) | -1.657% |
| 3 | `CC(=O)N(C1CC1)C(C)c1ccccn1` (centres unmarked) | 4.918% |
| 4 | `CC(NS(=O)(=O)c1cc(Br)ccc1F)C(=O)N(C)C` (centres unmarked) | 5.558% |
| 5 | `CCC(C)(C)NCC(=O)N(C)Cc1ccco1` | -5.893% |
| 6 | `NCC(=O)N1Cc2ccccc2C1` | -6.497% |
| 7 | `CSCC(=O)NCc1ccc(CN2CCCC2)cc1` | 1.853% |
| 8 | `Cc1noc(NCc2ccccc2F)n1` | 10.78% |
| 9 | `Cc1csc(NC(=O)Cn2ccc(=O)n(C)c2=O)n1` | 5% |
| 10 | `Cc1nc(C)c(CN2CC3(CCNCC3)OC2=O)s1` | -4.98% |
| 11 | `CC(=O)N1CCC(NC(=O)OCC(F)(F)F)CC1` | 11.9% |
| 12 | `O=C(CSCCCN1CCOCC1)Nc1ccccc1` | -8.738% |
| 13 | `COC(=O)CCC(=O)Nc1ccccc1F` | 1.339% |
| 14 | `CCN(CC(C)C#N)S(=O)(=O)c1ncn(C)c1Cl` (centres unmarked) | -3.347% |
| 15 | `Cc1noc(C)c1S(=O)(=O)N1CCC(C(N)=O)C1` (centres unmarked) | -21.57% |
| 16 | `CCN(C(=O)CSc1ccncc1)[C@H]1COC[C@@H]1O` | -13.85% |
| 17 | `COCCS(=O)(=O)NC1CCCCC1` | 14.16% |
| 18 | `NCCc1n[nH]c(=O)n1-c1ccc(Cl)cc1` | 11.04% |
| 19 | `CC(=O)N1CCc2onc(-c3ccc(F)c(F)c3)c2C1` | 53.05% |
| 20 | `CN1Cc2cc(-c3csc(N)n3)ccc2NC1=O` | 28.11% |
| 21 | `COc1ccccc1CNC(=O)COc1nc(C)no1` | 3.865% |
| 22 | `COc1c(CNCCS(C)(=O)=O)c(C(C)C)nn1C` | 56.89% |
| 23 | `NCCCNC(=O)c1ccccc1OC(F)(F)C(F)F` | 8.269% |
| 24 | `Cc1nc(CNC(CCO)C(C)C)no1` (centres unmarked) | -0.8026% |
| 25 | `Cc1n[nH]cc1CNC1CCN(C(=O)C(C)C)CC1` | -2.46% |
| 26 | `Cc1ccc(C2CCCN2S(=O)(=O)N2CCOCC2)o1` (centres unmarked) | -25.89% |
| 27 | `Nc1ccc(C(F)(F)F)nn1` | 6.979% |
| 28 | `CC(=O)Nc1ccc(S(=O)(=O)n2cccn2)cc1` | 13.67% |
| 29 | `CCc1nnsc1C(=O)NCc1cnn(C)c1` | -8.021% |
| 30 | `COCCNC(=O)C1CCCc2ccccc21` (centres unmarked) | 8.373% |
| 31 | `NC(=O)CC1CCN(Cc2ccccc2F)CC1` | -3.774% |
| 32 | `Cn1c(CO)nc2ccc(Br)cc21` | -6.085% |
| 33 | `COCc1nc(CN2CCCC2c2nccs2)no1` (centres unmarked) | -7.538% |
| 34 | `CCN1CCCC(C)(C(=O)NCCc2nnc(C)s2)C1` (centres unmarked) | 8.383% |
| 35 | `Cc1cc(C)n2nc(SCC(N)=O)nc2n1` | -6.255% |
| 36 | `O=C(CC1C=CCC1)N1CCN(c2ccccn2)CC1` (centres unmarked) | 62.01% |
| 37 | `Cn1ncc(CN)c1C(F)(F)F` | -5.723% |
| 38 | `O=S1(=O)CC[C@H]2CNC[C@H]21` | -9.355% |
| 39 | `CC(C)(C)NC(=O)CCNC(=O)c1ccccc1` | 13.69% |
| 40 | `CCOc1cccc(NC(=O)c2ccc(C)[nH]c2=O)n1` | -10.88% |
| 41 | `CCNC(=O)[C@@H]1C[C@H](N)CN1c1nc(C)ncc1CC` | 7.246% |
| 42 | `CCC(C)C(=O)N1CCN(C(=O)c2ccoc2C)CC1` (centres unmarked) | -1.618% |
| 43 | `COc1ccc(N2CCNCC2)cc1F` | 32.45% |
| 44 | `CC(C)(CNC(=O)C(C)(C)C)CNC(=O)C(C)(C)C` | 11.88% |
| 45 | `Cc1nn(C)c(C)c1CC(=O)N1CCCC(C(N)=O)C1` (centres unmarked) | -10.57% |
| 46 | `Nc1cnccc1N1CCCCC1` | 7.658% |
| 47 | `COCc1ccc(SCC(=O)N(C)C)cc1` | 35.46% |
| 48 | `Cc1ccc2nc(CCN)oc2c1` | 62.41% |
| 49 | `CCNc1ncc(C(=O)NC(CCOC)C(C)C)s1` (centres unmarked) | 0.7554% |
| 50 | `Cc1ccccc1C(C)CC(=O)NC(C)(CO)CO` (centres unmarked) | 39.13% |
| 51 | `CN1CCC[C@@H]1CN1CCN(C(=O)c2ccc[nH]2)CC1` | -1.16% |
| 52 | `CC(C)(C)OC(=O)N1CC(N)CC(F)(F)C1` (centres unmarked) | -25.19% |
| 53 | `CCC(CO)Nc1ncnc2c1c(Br)nn2C` (centres unmarked) | -4.031% |
| 54 | `Cc1nccn1CC1CCN(CC(O)CO)CC1` (centres unmarked) | 4.607% |
| 55 | `CCC1CN(C(=O)c2sccc2N)CCN1C(C)C` (centres unmarked) | 14.19% |
| 56 | `N#Cc1ccc(Br)o1` | -4.534% |
| 57 | `CN(C(=O)c1cnn2cccnc12)C1CCCC1` | -0.4516% |
| 58 | `CSc1ccccc1NC(=O)CCn1cnc(C#N)n1` | 61.22% |
| 59 | `CCn1ncnc1CNC(=O)Cn1nc(C)c(Cl)c1C` | 6.064% |
| 60 | `CC(C)(C)OC(=O)N1CCCC1CN` (centres unmarked) | 41.42% |
| 61 | `CC(C)c1nnsc1CNC(=O)CCc1csc(N)n1` | 3.979% |
| 62 | `Cc1cccc(OC2CCS(=O)(=O)C2)c1` (centres unmarked) | -12.75% |
| 63 | `COc1ccc(CC(=O)N2CCOCC2)cc1F` | 10.5% |

The last 4 entries again:

| structure | percent effect |
|---|---|
| `CC(C)(C)OC(=O)N1CCCC1CN` (centres unmarked) | 41.42% |
| `CC(C)c1nnsc1CNC(=O)CCc1csc(N)n1` | 3.979% |
| `Cc1cccc(OC2CCS(=O)(=O)C2)c1` (centres unmarked) | -12.75% |
| `COc1ccc(CC(=O)N2CCOCC2)cc1F` | 10.5% |

Measurements from “University of Dundee, Small-Polar-MMV Screening Library” (2021), ChEMBL document CHEMBL3988442.